Measured values: patent US5789383A, “Bradykinin antagonists for the prophylaxis or treatment of virus diseases” (Hoechst Aktiengesellschaft, priority 1993, dated 1998)
Part of at least one peptide drawing is inferred or uncertain, most often the ends.

Key:
HSV-1 [1] = experiment: HOE 140 in combination with acyclovir on HSV-1 skin lesions in hairless mice, Experiment 24/94; format: in vivo; conditions: HOE 140 10 x 2 (day 3-7), no acyclovir
Method: Investigation of the Action of HOE 140 on Skin Lesions Caused by HSV-1 in Hairless Mice in Combination with Acyclovir
HOE 140 was administered twice daily either topically as a 2% strength cream in a neutral base or subcutaneously with 2 mg/kg per dosage. Acyclovir was administered as a 0.05% strength solution in the drinking water.
Administration of acyclovir day 3-7
Administration of HOE 140 day 3-7 or 0-7

HSV-1 [2] = experiment: HOE 140 in combination with acyclovir on HSV-1 skin lesions in hairless mice, Experiment 22/94; format: in vivo; conditions: day 3-8, no acyclovir; for Animals with zoster formation: group size 8
[3] = system: HSV-1, clinical isolate "corneae"; experiment: Action of HOE 140 on skin lesions caused by HSV-1 in hairless mice (experiment 12/93); format: in vivo, immunocompetent hairless mice (hr/hr); conditions: for Animals with zoster formation: 2x daily for 10 days from day 4, group size 5

Which results are given for `N=C(N)NCCC[C@@H](N)C(=O)N[C@@H](CCCNC(=N)N)C(=O)N1CCC[C@H]1C(=O)N1C[C@H](O)C[C@H]1C(=O)NCC(=O)N[C@@H](Cc1cccs1)C(=O)N[C@@H](CO)C(=O)N1Cc2ccccc2C[C@@H]1C(=O)N1[C@H](C(=O)N[C@@H](CCCNC(=N)N)C(=O)O)C[C@@H]2CCCC[C@@H]21` [HOE 140]?
Animals with zoster formation (HSV-1 [1]; group size 8): 8; Average survival time (HSV-1 [1]; p (t test) < 0.05 compared with the control): 7.8 ± 0.5 days; Average survival time (HSV-1 [2]; HOE 140 12 x 2 mg/kg s.c.): 9.4 ± 1.3 days; Animals with zoster formation (HSV-1 [2]; HOE 140 12 x 2 mg/kg s.c.): 5; Average survival time (HSV-1 [2]; HOE 140 12 x 2% topically): 8.3 ± 1.0 days; Animals with zoster formation (HSV-1 [2]; HOE 140 12 x 2% topically): 7; Animals with zoster formation ([3]; 1 mg/kg s.c.): 1; Animals with zoster formation ([3]; 5 mg/kg s.c.): 0; Animals with zoster formation ([3]; 1% topically): 1; Animals with zoster formation ([3]; 5% topically): 2; Four-field test, result positive (animals) ([3]; all treatment groups pooled, total 20, control 1 of 6, CHI^2 8.18): 16; Four-field test, result negative (animals) ([3]; all treatment groups pooled, total 20, control 5 of 6, CHI^2 8.18): 4; Symptoms of a cutaneous herpes infection ([3]; both parenteral (subcutaneous) and topical treatment): significant reduction; Development of severe skin lesions (zoster formation) versus untreated controls ([3]; treated animals pooled, Chi^2 test): significantly (p<0.001, Chi^2 test) lower
